Laboratory results: PMC9127577
No constants are given. Whether binding was seen depends on the method and setting. Binding seen in cells or lysates may run through a third protein. A yes stands for co-enrichment or nearness to the bait. Other partners may have been found.

Chains of the proteins cited; added tags and fusions are not shown. Lines headed by an entry give the natural chain unless they say otherwise; changes in a name come on top. A line that says so, or that is headed by a name, gives the form on record, which may keep a tag or linker.
UniProt Q9Y294: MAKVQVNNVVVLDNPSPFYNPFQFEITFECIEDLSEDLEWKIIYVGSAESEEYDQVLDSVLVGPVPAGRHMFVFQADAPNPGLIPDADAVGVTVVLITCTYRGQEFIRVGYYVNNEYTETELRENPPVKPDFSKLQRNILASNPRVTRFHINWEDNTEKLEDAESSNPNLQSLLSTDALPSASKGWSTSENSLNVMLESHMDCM
UniProt P54198: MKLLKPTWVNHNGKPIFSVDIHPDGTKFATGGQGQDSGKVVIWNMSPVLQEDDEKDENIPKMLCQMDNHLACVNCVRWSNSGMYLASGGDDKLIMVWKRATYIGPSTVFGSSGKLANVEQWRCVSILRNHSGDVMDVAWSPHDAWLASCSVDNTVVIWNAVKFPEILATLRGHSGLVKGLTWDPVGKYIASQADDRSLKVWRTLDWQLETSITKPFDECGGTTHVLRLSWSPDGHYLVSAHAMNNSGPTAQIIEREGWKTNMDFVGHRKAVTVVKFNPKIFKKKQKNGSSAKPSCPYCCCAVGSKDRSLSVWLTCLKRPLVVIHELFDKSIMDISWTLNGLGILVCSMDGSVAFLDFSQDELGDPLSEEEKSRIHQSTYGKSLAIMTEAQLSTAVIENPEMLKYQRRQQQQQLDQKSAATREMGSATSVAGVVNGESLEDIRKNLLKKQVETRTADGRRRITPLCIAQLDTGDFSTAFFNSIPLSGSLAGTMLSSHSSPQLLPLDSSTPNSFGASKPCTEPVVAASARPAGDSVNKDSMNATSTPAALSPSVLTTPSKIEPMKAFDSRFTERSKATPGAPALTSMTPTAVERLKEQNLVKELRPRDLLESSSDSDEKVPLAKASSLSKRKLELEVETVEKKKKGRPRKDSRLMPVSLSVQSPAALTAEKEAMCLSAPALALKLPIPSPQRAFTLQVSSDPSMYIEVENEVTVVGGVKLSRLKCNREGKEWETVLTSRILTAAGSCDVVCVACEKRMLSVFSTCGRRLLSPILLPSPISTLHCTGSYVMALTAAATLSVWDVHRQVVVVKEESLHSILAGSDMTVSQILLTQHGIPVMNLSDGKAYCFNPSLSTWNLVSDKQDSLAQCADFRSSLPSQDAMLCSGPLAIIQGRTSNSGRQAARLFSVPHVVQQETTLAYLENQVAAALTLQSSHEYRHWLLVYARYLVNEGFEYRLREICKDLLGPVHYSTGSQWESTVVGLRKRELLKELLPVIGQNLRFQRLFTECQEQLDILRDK
SFB-tagged endogenous RIF1 (replication timing regulatory factor 1), N-terminal knock-in (Q5UIP0-2, form named): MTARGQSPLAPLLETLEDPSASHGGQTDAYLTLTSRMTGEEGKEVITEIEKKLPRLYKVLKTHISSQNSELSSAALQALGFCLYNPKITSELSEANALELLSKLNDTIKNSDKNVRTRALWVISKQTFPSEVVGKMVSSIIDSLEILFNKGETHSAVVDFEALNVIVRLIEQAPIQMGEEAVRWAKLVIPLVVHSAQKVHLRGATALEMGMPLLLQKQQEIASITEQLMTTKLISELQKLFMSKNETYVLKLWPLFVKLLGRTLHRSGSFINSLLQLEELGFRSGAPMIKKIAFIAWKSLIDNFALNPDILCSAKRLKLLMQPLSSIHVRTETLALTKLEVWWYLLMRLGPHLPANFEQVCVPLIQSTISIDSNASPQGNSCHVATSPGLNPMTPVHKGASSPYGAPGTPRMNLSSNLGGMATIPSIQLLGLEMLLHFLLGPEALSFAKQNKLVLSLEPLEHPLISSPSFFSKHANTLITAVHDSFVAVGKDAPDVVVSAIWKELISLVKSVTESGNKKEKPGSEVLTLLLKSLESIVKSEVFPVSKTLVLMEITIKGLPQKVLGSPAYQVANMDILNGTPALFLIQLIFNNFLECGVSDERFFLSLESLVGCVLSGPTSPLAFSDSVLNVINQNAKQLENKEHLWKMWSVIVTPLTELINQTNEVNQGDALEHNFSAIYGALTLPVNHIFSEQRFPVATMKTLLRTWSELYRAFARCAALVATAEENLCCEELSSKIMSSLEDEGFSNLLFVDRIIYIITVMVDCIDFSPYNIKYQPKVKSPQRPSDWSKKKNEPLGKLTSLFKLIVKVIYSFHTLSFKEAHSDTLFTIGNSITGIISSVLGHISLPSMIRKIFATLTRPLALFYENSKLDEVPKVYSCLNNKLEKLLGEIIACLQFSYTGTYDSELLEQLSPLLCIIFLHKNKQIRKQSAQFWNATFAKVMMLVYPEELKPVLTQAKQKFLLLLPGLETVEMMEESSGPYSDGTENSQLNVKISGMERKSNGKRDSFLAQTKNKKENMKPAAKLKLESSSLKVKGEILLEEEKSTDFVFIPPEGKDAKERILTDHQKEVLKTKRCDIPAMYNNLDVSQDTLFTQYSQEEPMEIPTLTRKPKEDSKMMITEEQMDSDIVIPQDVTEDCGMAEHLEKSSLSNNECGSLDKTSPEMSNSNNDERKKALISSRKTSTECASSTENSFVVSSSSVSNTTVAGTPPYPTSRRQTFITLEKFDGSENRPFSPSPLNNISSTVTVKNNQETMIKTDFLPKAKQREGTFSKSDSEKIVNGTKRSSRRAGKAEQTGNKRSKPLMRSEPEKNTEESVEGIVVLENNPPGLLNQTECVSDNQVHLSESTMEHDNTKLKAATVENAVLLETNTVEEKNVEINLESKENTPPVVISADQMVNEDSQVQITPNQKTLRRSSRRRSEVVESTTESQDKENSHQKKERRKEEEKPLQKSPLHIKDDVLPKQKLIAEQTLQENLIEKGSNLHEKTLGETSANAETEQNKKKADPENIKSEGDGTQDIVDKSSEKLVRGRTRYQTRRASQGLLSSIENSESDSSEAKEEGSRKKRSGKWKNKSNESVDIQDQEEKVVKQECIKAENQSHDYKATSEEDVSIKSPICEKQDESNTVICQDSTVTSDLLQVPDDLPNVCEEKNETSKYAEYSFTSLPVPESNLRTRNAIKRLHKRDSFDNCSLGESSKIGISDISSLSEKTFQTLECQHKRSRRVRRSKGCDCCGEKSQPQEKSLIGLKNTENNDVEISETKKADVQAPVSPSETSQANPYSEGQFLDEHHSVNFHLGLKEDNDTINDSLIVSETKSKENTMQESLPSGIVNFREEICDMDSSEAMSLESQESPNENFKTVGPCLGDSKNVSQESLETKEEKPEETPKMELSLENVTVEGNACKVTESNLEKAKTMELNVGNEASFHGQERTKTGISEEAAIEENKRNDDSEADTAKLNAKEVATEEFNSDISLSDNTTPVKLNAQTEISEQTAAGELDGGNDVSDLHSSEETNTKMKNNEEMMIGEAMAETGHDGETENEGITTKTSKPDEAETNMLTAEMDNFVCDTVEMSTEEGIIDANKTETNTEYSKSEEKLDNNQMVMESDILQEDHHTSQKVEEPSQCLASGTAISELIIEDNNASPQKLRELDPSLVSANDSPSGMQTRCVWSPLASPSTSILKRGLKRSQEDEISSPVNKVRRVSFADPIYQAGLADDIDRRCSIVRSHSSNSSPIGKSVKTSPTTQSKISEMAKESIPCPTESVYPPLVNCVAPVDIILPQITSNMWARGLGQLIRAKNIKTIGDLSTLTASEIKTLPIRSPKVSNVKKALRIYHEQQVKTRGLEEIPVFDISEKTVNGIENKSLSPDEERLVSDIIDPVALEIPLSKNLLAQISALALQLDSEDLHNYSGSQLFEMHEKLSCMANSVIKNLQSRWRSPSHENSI
UniProt Q9NVP2: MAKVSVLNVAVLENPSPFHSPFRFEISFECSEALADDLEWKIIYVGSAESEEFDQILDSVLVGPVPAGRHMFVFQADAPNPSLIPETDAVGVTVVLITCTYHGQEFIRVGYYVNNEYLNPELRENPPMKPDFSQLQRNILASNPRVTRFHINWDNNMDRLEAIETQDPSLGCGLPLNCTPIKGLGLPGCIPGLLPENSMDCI
UniProt P62140: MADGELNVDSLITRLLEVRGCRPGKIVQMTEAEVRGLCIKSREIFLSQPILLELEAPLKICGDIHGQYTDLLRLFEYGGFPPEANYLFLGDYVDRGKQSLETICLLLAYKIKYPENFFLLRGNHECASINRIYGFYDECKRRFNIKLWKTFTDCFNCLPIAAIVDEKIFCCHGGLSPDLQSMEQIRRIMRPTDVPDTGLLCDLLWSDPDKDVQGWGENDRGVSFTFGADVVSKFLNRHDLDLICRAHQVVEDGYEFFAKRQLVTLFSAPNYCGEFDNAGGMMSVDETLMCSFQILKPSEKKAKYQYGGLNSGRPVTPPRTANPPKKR
UniProt P36873: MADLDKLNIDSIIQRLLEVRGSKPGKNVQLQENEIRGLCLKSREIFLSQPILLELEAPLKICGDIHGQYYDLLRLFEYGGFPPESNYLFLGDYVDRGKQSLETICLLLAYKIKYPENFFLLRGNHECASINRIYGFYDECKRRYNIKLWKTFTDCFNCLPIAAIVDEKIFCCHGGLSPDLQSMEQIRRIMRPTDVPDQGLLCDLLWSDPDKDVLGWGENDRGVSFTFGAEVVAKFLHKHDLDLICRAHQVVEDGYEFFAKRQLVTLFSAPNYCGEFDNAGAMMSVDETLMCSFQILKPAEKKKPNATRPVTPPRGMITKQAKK
UniProt Q12888: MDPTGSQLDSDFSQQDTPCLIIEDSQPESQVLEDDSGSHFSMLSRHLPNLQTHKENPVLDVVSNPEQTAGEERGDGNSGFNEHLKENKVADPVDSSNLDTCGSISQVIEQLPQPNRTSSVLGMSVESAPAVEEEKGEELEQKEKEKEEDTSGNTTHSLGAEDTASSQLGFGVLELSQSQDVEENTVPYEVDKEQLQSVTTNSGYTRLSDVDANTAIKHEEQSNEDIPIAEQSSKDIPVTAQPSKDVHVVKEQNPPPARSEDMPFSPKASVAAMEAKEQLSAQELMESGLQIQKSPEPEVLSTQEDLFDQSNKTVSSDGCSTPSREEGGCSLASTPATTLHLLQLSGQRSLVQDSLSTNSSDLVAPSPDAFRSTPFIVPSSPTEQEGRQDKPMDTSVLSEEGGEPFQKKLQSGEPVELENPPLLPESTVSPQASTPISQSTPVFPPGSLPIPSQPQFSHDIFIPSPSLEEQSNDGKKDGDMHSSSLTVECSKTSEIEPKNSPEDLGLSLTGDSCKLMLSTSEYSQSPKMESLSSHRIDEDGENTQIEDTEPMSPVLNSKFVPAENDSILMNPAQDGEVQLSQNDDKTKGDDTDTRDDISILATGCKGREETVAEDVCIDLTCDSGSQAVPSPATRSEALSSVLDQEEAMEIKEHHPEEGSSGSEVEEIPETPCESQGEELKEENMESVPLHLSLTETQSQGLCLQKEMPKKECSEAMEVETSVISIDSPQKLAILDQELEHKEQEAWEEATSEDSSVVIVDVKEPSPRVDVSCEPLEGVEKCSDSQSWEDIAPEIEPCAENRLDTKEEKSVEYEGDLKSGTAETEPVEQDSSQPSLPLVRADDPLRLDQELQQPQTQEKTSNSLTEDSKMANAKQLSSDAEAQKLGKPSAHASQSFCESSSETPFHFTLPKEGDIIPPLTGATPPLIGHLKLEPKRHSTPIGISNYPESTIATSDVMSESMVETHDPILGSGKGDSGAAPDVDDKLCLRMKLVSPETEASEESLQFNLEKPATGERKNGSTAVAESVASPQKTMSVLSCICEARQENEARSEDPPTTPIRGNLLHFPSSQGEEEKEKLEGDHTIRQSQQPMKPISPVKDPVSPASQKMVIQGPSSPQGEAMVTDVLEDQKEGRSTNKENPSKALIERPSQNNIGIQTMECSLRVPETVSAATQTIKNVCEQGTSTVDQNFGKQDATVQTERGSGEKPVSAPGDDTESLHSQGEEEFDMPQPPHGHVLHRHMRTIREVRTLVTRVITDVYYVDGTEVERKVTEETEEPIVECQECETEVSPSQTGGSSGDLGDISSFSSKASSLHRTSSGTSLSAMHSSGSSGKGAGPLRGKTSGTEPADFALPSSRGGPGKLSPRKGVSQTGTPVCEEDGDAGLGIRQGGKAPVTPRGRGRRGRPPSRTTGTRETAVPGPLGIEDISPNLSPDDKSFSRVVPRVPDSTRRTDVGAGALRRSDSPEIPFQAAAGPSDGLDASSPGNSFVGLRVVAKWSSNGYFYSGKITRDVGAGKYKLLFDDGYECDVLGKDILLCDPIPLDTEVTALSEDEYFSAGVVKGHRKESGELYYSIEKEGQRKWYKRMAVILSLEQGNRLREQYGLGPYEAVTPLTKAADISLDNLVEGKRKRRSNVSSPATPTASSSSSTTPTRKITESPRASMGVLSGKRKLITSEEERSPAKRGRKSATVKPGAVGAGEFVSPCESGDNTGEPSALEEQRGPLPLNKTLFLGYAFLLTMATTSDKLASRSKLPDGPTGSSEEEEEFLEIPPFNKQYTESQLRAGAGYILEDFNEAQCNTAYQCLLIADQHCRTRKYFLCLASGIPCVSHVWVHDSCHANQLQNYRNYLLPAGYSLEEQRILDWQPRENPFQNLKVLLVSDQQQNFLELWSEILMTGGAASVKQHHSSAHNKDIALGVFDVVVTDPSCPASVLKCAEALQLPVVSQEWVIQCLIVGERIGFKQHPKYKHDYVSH

Target: SFB-tagged ASF1A, full length (human) (UniProt Q9Y294)
Experiment: affinity purification with mass spectrometry; tandem affinity purification (streptavidin beads, biotin elution, S-protein beads) of overexpressed N-terminal SFB-tagged ASF1A or ASF1B from 293T whole cell lysates; NETN buffer with turbonuclease; 4 °C

Substance | binding
HIRA (from UniProt P54198 1-1017) | binds
endogenous RIF1 (replication timing regulatory factor 1) (from UniProt Q5UIP0-2 1-2446) | binds

Target: SFB-tagged ASF1B, full length (human) (UniProt Q9NVP2)
Experiment: as above

Substance | binding
endogenous RIF1 (replication timing regulatory factor 1) (from UniProt Q5UIP0-2 1-2446) | binds

Target: SFB-tagged endogenous RIF1 (replication timing regulatory factor 1), N-terminal knock-in (human) (UniProt Q5UIP0)
Experiment: affinity purification with mass spectrometry; tandem affinity purification (streptavidin beads, biotin elution, S-protein beads) of SFB-tagged endogenous RIF1 from 293T knock-in cells; NETN buffer (250 mM NaCl, 1 mM EDTA, 20 mM Tris-HCl pH 8.0, 0.5% NP-40); soluble and chromatin fractions; 4 °C

Substance | binding
PPP1CA (PP1 phosphatase isoform) (from UniProt P62136 1-330) (enzyme) | binds
PPP1CB (PP1 phosphatase isoform) (from UniProt P62140 1-327) (enzyme) | binds
endogenous ASF1A (from UniProt Q9Y294 1-204) | binds
PPP1CC (PP1 phosphatase isoform) (from UniProt P36873 1-323) (enzyme) | binds
Tousled-like kinase TLK1 (from UniProt Q9UKI8 1-766) (enzyme) | binds
TP53BP1 (from UniProt Q12888 1-1972) | binds
